PubChem BioAssay AID1259405, NCATS | 2018
Purpose: 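Knock-downs that lift recombinant protein yield in hamster ovary cells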 (primary screen). Cell system: Chinese hamster CHO-K1 ovary cells with stable secreted eGFP expression. Reagent: single siRNA against mouse genes, 0.8 pmol siRNA per well (2 µl of 400 nM stock). Time to read-out: 3 days. Detection: 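Percent of the per-plate non-targeting control median for intracellular GFP per well by laser scanning cytometry and for cell viability by ATP luminescence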. Direction: GFP, % of control: higher = more GFP per well, higher productivity; viability (ATP), % of control: higher = more viable cells (more ATP). Call rule: 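a knock-down is called active if GFP reaches 120% or more of non-targeting control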.
The deposit covers about 50,000 reagents; this is a random part of them. Of all reagents, about 4,000 (8%) were called active. 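Mouse siRNA library applied to hamster cells; one well for each siRNA.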 Unmarked entries are inactive. The numbers tell different reagents against one gene apart.

| gene symbol | reagent no. | GFP, % of control | viability (ATP), % of control |
| --- | --- | --- | --- |
| Krt16 (GeneID 16666) | 1 | 67.8 | 47.3 |
| Krt16 (GeneID 16666) | 2 | 67.4 | 71.6 |
| Krt16 (GeneID 16666) | 3 | 55.2 | 76.3 |
| Rhebl1 (GeneID 69159) | 1 | 111 | 110 |
| Rhebl1 (GeneID 69159) | 2 | 96.1 | 107 |
| Rhebl1 (GeneID 69159) | 3 | 63.8 | 86.1 |
| Or52n20 (GeneID 259052) | 1 | 103 | 97.4 |
| Or52n20 (GeneID 259052) | 2 | 76.1 | 60.6 |
| Or52n20 (GeneID 259052) | 3 | 61.1 | 101 |
| Mis18a (GeneID 66578) | 1 | 91.3 | 68.7 |
| Mis18a (GeneID 66578) | 2 | 32.4 | 33.1 |
| Mis18a (GeneID 66578) | 3 | 85.5 | 73.1 |
| Tdpoz5 (GeneID 399676) | 1 | 92.1 | 98.7 |
| Tdpoz5 (GeneID 399676) | 2 | 164 (active) | 86.8 |
| Tdpoz5 (GeneID 399676) | 3 | 82.9 | 89.7 |
| Gpsm3 (GeneID 106512) | 1 | 33.7 | 71 |
| Gpsm3 (GeneID 106512) | 2 | 91.8 | 99 |
| Gpsm3 (GeneID 106512) | 3 | 76.9 | 55 |
| Eif3h (GeneID 68135) | 1 | 54.1 | 70.3 |
| Eif3h (GeneID 68135) | 2 | 37.5 | 59.5 |
| Eif3h (GeneID 68135) | 3 | 82.2 | 91.6 |
| Hspb1 (GeneID 15507) | 1 | 68.5 | 74.6 |
| Hspb1 (GeneID 15507) | 2 | 77.3 | 68.6 |
| Hspb1 (GeneID 15507) | 3 | 86.1 | 101 |
| Kif2a (GeneID 16563) | 1 | 67 | 74.1 |
| Kif2a (GeneID 16563) | 2 | 57.7 | 52.8 |
| Nin (GeneID 18080) | 1 | 50.1 | 104 |
| Nin (GeneID 18080) | 2 | 94.8 | 74.5 |
| Nin (GeneID 18080) | 3 | 58.1 | 73.6 |
| Psmb5 (GeneID 19173) | 1 | 62.1 | 46.4 |
| Psmb5 (GeneID 19173) | 2 | 58.7 | 47 |
| Psmb5 (GeneID 19173) | 3 | 35.8 | 45.9 |
| Cul7 (GeneID 66515) | 1 | 47.1 | 65.3 |
| Cul7 (GeneID 66515) | 2 | 75.2 | 79.6 |
| Cul7 (GeneID 66515) | 3 | 94.6 | 72.8 |
| Tmcc2 (GeneID 68875) | 1 | 68.1 | 85.5 |
| Tmcc2 (GeneID 68875) | 2 | 47.8 | 63.2 |
| Tmcc2 (GeneID 68875) | 3 | 55.3 | 50.1 |
| Cyb561 (GeneID 13056) | 1 | 10.5 | 8.23 |
| Cyb561 (GeneID 13056) | 2 | 63.5 | 54.9 |
| Cyb561 (GeneID 13056) | 3 | 77.4 | 64.1 |
| Muc4 (GeneID 140474) | 1 | 104 | 78.3 |
| Muc4 (GeneID 140474) | 2 | 80.2 | 88.1 |
| Muc4 (GeneID 140474) | 3 | 61.4 | 61.7 |
| Muc4 (GeneID 140474) | 4 | 89.8 | 67.5 |
| Muc4 (GeneID 140474) | 5 | 90.9 | 85.1 |
| Muc4 (GeneID 140474) | 6 | 57.1 | 101 |

Part of the list above in another layout:
{"gene symbol": "Mis18a (GeneID 66578)", "reagent no.": 1, "GFP, % of control": 91.3, "viability (ATP), % of control": 68.7}
{"gene symbol": "Mis18a (GeneID 66578)", "reagent no.": 2, "GFP, % of control": 32.4, "viability (ATP), % of control": 33.1}
{"gene symbol": "Mis18a (GeneID 66578)", "reagent no.": 3, "GFP, % of control": 85.5, "viability (ATP), % of control": 73.1}
{"gene symbol": "Tdpoz5 (GeneID 399676)", "reagent no.": 1, "GFP, % of control": 92.1, "viability (ATP), % of control": 98.7}
{"gene symbol": "Tdpoz5 (GeneID 399676)", "reagent no.": 2, "GFP, % of control": "164 (active)", "viability (ATP), % of control": 86.8}
{"gene symbol": "Tdpoz5 (GeneID 399676)", "reagent no.": 3, "GFP, % of control": 82.9, "viability (ATP), % of control": 89.7}
{"gene symbol": "Gpsm3 (GeneID 106512)", "reagent no.": 1, "GFP, % of control": 33.7, "viability (ATP), % of control": 71}
{"gene symbol": "Gpsm3 (GeneID 106512)", "reagent no.": 2, "GFP, % of control": 91.8, "viability (ATP), % of control": 99}
{"gene symbol": "Gpsm3 (GeneID 106512)", "reagent no.": 3, "GFP, % of control": 76.9, "viability (ATP), % of control": 55}

The listing continues.
| gene symbol | reagent no. | GFP, % of control | viability (ATP), % of control |
| --- | --- | --- | --- |
| Or4a75 (GeneID 258787) | 1 | 91.7 | 73.1 |
| Or4a75 (GeneID 258787) | 2 | 107 | 73.3 |
| Or4a75 (GeneID 258787) | 3 | 56.3 | 87.4 |
| Acsm2 (GeneID 233799) | 1 | 58.4 | 77.7 |
| Acsm2 (GeneID 233799) | 2 | 113 | 93.3 |
| Acsm2 (GeneID 233799) | 3 | 146 (active) | 148 |
| Or5ac24 (GeneID 258993) | 1 | 106 | 83.2 |
| Or5ac24 (GeneID 258993) | 2 | 62.5 | 78.2 |
| Or5ac24 (GeneID 258993) | 3 | 60.1 | 98.6 |
| Ctns (GeneID 83429) | 1 | 82 | 65.2 |
| Ctns (GeneID 83429) | 2 | 120 (active) | 94.7 |
| Ctns (GeneID 83429) | 3 | 61.4 | 57.1 |
| Or5b12b (GeneID 258694) | 1 | 117 | 75.2 |
| Or5b12b (GeneID 258694) | 2 | 90.9 | 50.6 |
| Or5b12b (GeneID 258694) | 3 | 61.5 | 79.2 |
| Or6p1 (GeneID 258756) | 1 | 66.4 | 63.2 |
| Or6p1 (GeneID 258756) | 2 | 74.9 | 85.3 |
| Or6p1 (GeneID 258756) | 3 | 69.6 | 70 |
| Sec61a1 (GeneID 53421) | 1 | 95.9 | 66.6 |
| Sec61a1 (GeneID 53421) | 2 | 30.3 | 54.3 |
| Sec61a1 (GeneID 53421) | 3 | 64.1 | 82 |
| Serpinc1 (GeneID 11905) | 1 | 91.7 | 51.1 |
| Serpinc1 (GeneID 11905) | 2 | 42.5 | 59.4 |
| Serpinc1 (GeneID 11905) | 3 | 45.9 | 68.8 |
| Usp17la (GeneID 13531) | 1 | 114 | 100 |
| Usp17la (GeneID 13531) | 2 | 40 | 51.7 |
| Usp17la (GeneID 13531) | 3 | 68.1 | 60.8 |
| Slc38a7 (GeneID 234595) | 1 | 88.5 | 32.2 |
| Slc38a7 (GeneID 234595) | 2 | 69.9 | 80.3 |
| Slc38a7 (GeneID 234595) | 3 | 71.1 | 60.4 |
| Sdhaf2 (GeneID 66072) | 1 | 96.4 | 95.4 |
| Sdhaf2 (GeneID 66072) | 2 | 51.9 | 39.7 |
| Sdhaf2 (GeneID 66072) | 3 | 102 | 63.6 |
| Cyp2ab1 (GeneID 224044) | 1 | 99.4 | 68.5 |
| Cyp2ab1 (GeneID 224044) | 2 | 77.8 | 69.4 |
| Cyp2ab1 (GeneID 224044) | 3 | 67.5 | 67.9 |
| Lyz2 (GeneID 17105) | 1 | 117 | 108 |
| Lyz2 (GeneID 17105) | 2 | 86.2 | 92.2 |
| Lyz2 (GeneID 17105) | 3 | 89.1 | 64 |
